According to article PMC7819943, “Rice protein-binding microarrays: a tool to detect cis-acting elements near promoter regions in rice”:
Some of the results follow.

Amino acid sequences for entries named in this document (tags omitted).
UniProt Q0JBA9, entry or part of it: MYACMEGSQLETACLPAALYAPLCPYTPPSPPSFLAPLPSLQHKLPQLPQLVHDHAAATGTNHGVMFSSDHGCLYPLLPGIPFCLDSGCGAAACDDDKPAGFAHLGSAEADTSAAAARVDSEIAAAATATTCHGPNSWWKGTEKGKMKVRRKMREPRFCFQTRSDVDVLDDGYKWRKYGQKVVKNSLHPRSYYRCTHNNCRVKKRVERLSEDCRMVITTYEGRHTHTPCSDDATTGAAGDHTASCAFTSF

These sequences were tested against OsWRKY34 (Oryza sativa, UniProt Q0JBA9 1-250) (assay: protein-binding microarray (RPBM); PBS, 2% BSA, 51.3 ng/ul salmon testes DNA, 50 uM zinc acetate, 200 nM TF, 25 C, 1 h; high values mean tight binding). Details: protein: recombinant; tags: N-terminal polyhistidine and DsRed monomer fusion (pET32a); label: CyDye5-dUTP incorporated in the synthesized complementary strand; 3' TTTTT single-stranded linker to array surface; dsDNA, one strand shown.
Procedure, shortened: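 Polyhistidine-tagged DsRed fusions of transcription factors, joined at the N-terminus, were expressed in E. coli BL21-CodonPlus and isolated on Ni–NTA. They were incubated at 200 nM for 1 h at 25 °C on a custom Agilent array, double-stranded and BSA-blocked, in PBS with 2% BSA, salmon testes DNA and 50 µM zinc acetate. The binding signal is per-feature fluorescence intensity (arbitrary units) read on an Axon 4000B scanner after washing.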

| Sequence | binding signal |
| --- | --- |
| ATCGTTGTTTTGTTGCACTATAGTTAACTTAATTGTTTGACGGAGTCACCTAGTGCAG | 8520 fluorescence intensity (a.u.) |
| TGCCGACTTGCCGTGCTACGACACTTCATGCGTAATTTCTCGGAGTCACCTAGTGCAG | 9380 fluorescence intensity (a.u.) |
| CCTTTTCCCAGAGATTCCACATCCATCCAGCCCGCGGCCGCGGAGTCACCTAGTGCAG | 9060 fluorescence intensity (a.u.) |
| TTTTTTTTTCATCGATGCTTATTTTTTCAGCCTTTACTTTCGGAGTCACCTAGTGCAG | 8640 fluorescence intensity (a.u.) |
| ATATGTAGTTACTCTTTGTTTATGTGTCACCGTTGCATTCCGGAGTCACCTAGTGCAG | 8060 fluorescence intensity (a.u.) |
| CTTCTTTTGTCCCACAAGAACAGTACACCACACTGTCCACCGGAGTCACCTAGTGCAG | 8790 fluorescence intensity (a.u.) |
| GCCTTCACTGATCACCGCGATTCGGAGATTCTAATTGTTACGGAGTCACCTAGTGCAG | 10500 fluorescence intensity (a.u.) |
| CTTTCTTAATTGCTACTTCCTAGTTGTCTGCCTTTCTTCTCGGAGTCACCTAGTGCAG | 8340 fluorescence intensity (a.u.) |
| GGCCTCTCTGATGATCACGATATGGGCCTGGTGTAGTTTCCGGAGTCACCTAGTGCAG | 8140 fluorescence intensity (a.u.) |
| TAAACCTATTGTTAACCTTGTACATTTGTAAGGATATTTTCGGAGTCACCTAGTGCAG | 8520 fluorescence intensity (a.u.) |
| AGAGCAAAGAATTTCCCCACGATTTTTTTTCCTGTTTATTCGGAGTCACCTAGTGCAG | 8840 fluorescence intensity (a.u.) |
| CTTTCCCTTGATTTTTTGGGTTGGATGGGGAGGGTAGACGCGGAGTCACCTAGTGCAG | 12900 fluorescence intensity (a.u.) |
| CTGGTATCCTGTTGCCGTCTCCACCGCCACGTTCCTCCTCCGGAGTCACCTAGTGCAG | 8600 fluorescence intensity (a.u.) |
| ACTCCTCTTCACCCACTCCACGCCATCTCTCTCGCGCTCTCGGAGTCACCTAGTGCAG | 13700 fluorescence intensity (a.u.) |
| TATCGAATTCCATCCATTTTTTTGCTTTGTCCAATTCGTGCGGAGTCACCTAGTGCAG | 10100 fluorescence intensity (a.u.) |
| CTGCATCCTGCACGCCGCATCCGCACATAGCCACTCCACTCGGAGTCACCTAGTGCAG | 8820 fluorescence intensity (a.u.) |
| GCTGGGACCCACCATTTCCCCGGCCCCATCTGTCATAGGCCGGAGTCACCTAGTGCAG | 8440 fluorescence intensity (a.u.) |
| TTGTAGGATCAAATCAGCTAGCACGCTCTTGACACTTGAGCGGAGTCACCTAGTGCAG | 8490 fluorescence intensity (a.u.) |
| ATACATATAAGTTACTACTCCCACTGTTCATATTATAAGCCGGAGTCACCTAGTGCAG | 8640 fluorescence intensity (a.u.) |
| TATATTTTAATATTTTAATGTATGACGTCGTTGACTTTTTCGGAGTCACCTAGTGCAG | 13800 fluorescence intensity (a.u.) |
| GGGGCCTCACCAACCACGGCCGCGCTTCGCTTCTTCCTCTCGGAGTCACCTAGTGCAG | 9040 fluorescence intensity (a.u.) |
| ACTTCCACCTTTTCCTATTTCTCCTCTCCGTTCTCTCCGGCGGAGTCACCTAGTGCAG | 9140 fluorescence intensity (a.u.) |
| GCTAGTCCTATACCATTCATTGATGCTACCTACTACCGGGCGGAGTCACCTAGTGCAG | 8170 fluorescence intensity (a.u.) |
| GAGGCATGGAGGGCGGCGGCGGCGGCGGCGGAGGAGGAGGCGGAGTCACCTAGTGCAG | 13700 fluorescence intensity (a.u.) |
| CGAATTGCTTCGTCGTCCTCGCCTCCGGTCTCCGCGCGCGCGGAGTCACCTAGTGCAG | 14400 fluorescence intensity (a.u.) |
| TCCCGCGTCCTATTTTTTTTCTTTTACGATTTTTTTTCTTCGGAGTCACCTAGTGCAG | 10000 fluorescence intensity (a.u.) |
| TTGTCCATCTTCTTTCTTCTTCTTCTCCACTTACTTGTCCCGGAGTCACCTAGTGCAG | 8060 fluorescence intensity (a.u.) |

| Sequence | binding signal |
| --- | --- |
| ACCCACATTATCACTTGCATTTTCTCCAATTATATCATAACGGAGTCACCTAGTGCAG | 11300 fluorescence intensity (a.u.) |
| CTTCTGGCAATTGTCCTGTACTGCACTGGATGACCCGTTCCGGAGTCACCTAGTGCAG | 10200 fluorescence intensity (a.u.) |
| CCTTTTTTAGCTAGAGTGGGGTGGTTTTGCCTTTGCTGCCCGGAGTCACCTAGTGCAG | 11000 fluorescence intensity (a.u.) |
| GAAGTGGCGGGGCGGAGATCTCGTTGTCGATCGCGCAGCACGGAGTCACCTAGTGCAG | 9440 fluorescence intensity (a.u.) |
| AGGTAGAGAGGGTGACATTTTTATCTTTTTGTTTAACCGACGGAGTCACCTAGTGCAG | 8430 fluorescence intensity (a.u.) |
| TTCATCATGTCATGAGGTGGCATTCTAGTGATTATTGCGACGGAGTCACCTAGTGCAG | 8640 fluorescence intensity (a.u.) |
| CGCGTCGCGTTCCCATTTTGACTTGCCTTTCCTAGACTCTCGGAGTCACCTAGTGCAG | 8550 fluorescence intensity (a.u.) |
| TAGTATGTTTCTTTGTCCCTGTAGACCTGATTACTAACCTCGGAGTCACCTAGTGCAG | 9520 fluorescence intensity (a.u.) |
| ATCTGTCTGTCTGTCTGTCTGTTCTGTTGTATCCTTTCTTCGGAGTCACCTAGTGCAG | 12000 fluorescence intensity (a.u.) |
| ACGTGGCTTGGCTTATTTTTTTCCCTTACGTAGTCTCTCGCGGAGTCACCTAGTGCAG | 8560 fluorescence intensity (a.u.) |
| TACTCACAAAATAATCCTCCCTGTGCTTCTACCTGCCATTCGGAGTCACCTAGTGCAG | 8470 fluorescence intensity (a.u.) |
| TTCCAGACAAGTACTCCATTCCATTTTCCTCTCCATCGCGCGGAGTCACCTAGTGCAG | 8600 fluorescence intensity (a.u.) |
| ACCCACATATACTAGTACACATGGCCACGTCAGCTCCATTCGGAGTCACCTAGTGCAG | 8990 fluorescence intensity (a.u.) |
| TTTTATCTTTTCCAATGAACTTTTCCGTCATTTTTTTATTCGGAGTCACCTAGTGCAG | 8100 fluorescence intensity (a.u.) |
| AATTCACACATTCATCTGCTTGCTGAGTACCAGTATAAATCGGAGTCACCTAGTGCAG | 9310 fluorescence intensity (a.u.) |
| CAAACCTGTCTGCATGCATGTCTGTCTGCACTCTGCATCCCGGAGTCACCTAGTGCAG | 8610 fluorescence intensity (a.u.) |
| CCGCATCTTATTGTACTCGCTCTTATTTCATAGCATCATCCGGAGTCACCTAGTGCAG | 9390 fluorescence intensity (a.u.) |
| TTGTGGGTTGACTTCAATTTATAGGTGAGTATTGCGAGTTCGGAGTCACCTAGTGCAG | 10800 fluorescence intensity (a.u.) |
| CAGTCAGGTAGCAGTGTAGCACTTGTCTTCTACGGCACTACGGAGTCACCTAGTGCAG | 8410 fluorescence intensity (a.u.) |
| AACCTATCTTCTTGCTAGCCTCCTCGAATCTCGGGGACGACGGAGTCACCTAGTGCAG | 8190 fluorescence intensity (a.u.) |
| CCCGATGCGCTCGGCACTCTCTGTGCGGTGGGGAAAATTGCGGAGTCACCTAGTGCAG | 9030 fluorescence intensity (a.u.) |
| GATATTTGCTACTAGTACCGCTGACTGCAGTTGCCCTTCTCGGAGTCACCTAGTGCAG | 9470 fluorescence intensity (a.u.) |
| TCCCGTGTTTTCCTGCGTTTTACAATCCTCTGTTTTACACCGGAGTCACCTAGTGCAG | 8260 fluorescence intensity (a.u.) |
| GGATGAGCTCTTCATCCTCGCCTGCTTCTGATCATTCTTCCGGAGTCACCTAGTGCAG | 8100 fluorescence intensity (a.u.) |
| GCTGACATGTGGGCCCACTGTTTTTAATTTTTCCAAGATACGGAGTCACCTAGTGCAG | 8180 fluorescence intensity (a.u.) |
| ATCGACGTCGCGACAACGCTAGGGTTTGGCACGGGCGGGGCGGAGTCACCTAGTGCAG | 9490 fluorescence intensity (a.u.) |
| ATCCTCTGTTTTACACTTACATTCCTATCAAAATCCTACGCGGAGTCACCTAGTGCAG | 11600 fluorescence intensity (a.u.) |

Retrieved one by one from the entries so far:

| Sequence | binding signal |
| --- | --- |
| CCGCATCTTATTGTACTCGCTCTTATTTCATAGCATCATCCGGAGTCACCTAGTGCAG | 9390 fluorescence intensity (a.u.) |
| ACCCACATTATCACTTGCATTTTCTCCAATTATATCATAACGGAGTCACCTAGTGCAG | 11300 fluorescence intensity (a.u.) |

For reference, some entries already given.

| Sequence | binding signal |
| --- | --- |
| AATTCACACATTCATCTGCTTGCTGAGTACCAGTATAAATCGGAGTCACCTAGTGCAG | 9310 fluorescence intensity (a.u.) |
| CAAACCTGTCTGCATGCATGTCTGTCTGCACTCTGCATCCCGGAGTCACCTAGTGCAG | 8610 fluorescence intensity (a.u.) |
